# According to PubChem BioAssay AID504444 (National Center for Advancing Translational Sciences (NCATS), 2011):
# Out of some 360,000 compounds screened, about 7,500 (2.1%) were called active. This list was built around the results that the source calls inconclusive (neither active nor inactive); the mix of calls is not that of the screen. Calls follow the shape of the dose curve; as a rule, active = well fitted inhibition curve with a large enough effect; inconclusive = small, poorly fitted or top-dose-only effect, or effect the other way; inactive = flat fitted curve, though single readings scatter. Where the call is inconclusive, the potency comes from a doubtful curve fit.
# Test: Nrf2 qHTS screen for inhibitors; also: nearly all actives have a fitted effect of over 60% in size
# Settings: A549 ARE-Fluc reporter, luciferase luminescence, 18-24 h; series mostly up to 46 µM
# Outline: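 A549 ARE_Fluc cells, 5000/well, 5% FBS OPTI-MEM; compounds in dose-response, 18-24 h at 37 °C/5% CO2; CellTiter-Fluor viability read (Ex 405/Em 525), then BugLite luciferase luminescence = Nrf2 activity.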
# Potency is read from the fitted curve at half-maximal effect.
row,SMILES,Potency
1,COC(=O)c1ccc(/C=C/c2nc3ccccc3c(=O)[nH]2)cc1,"inconclusive: 29.1 µM [activator, single point]"
2,Cc1cc(C)c2c(N)c(C(=O)c3ccc(Br)cc3)oc2n1,inactive
3,CN1c2ccsc2C(O)=C(C(=S)Nc2ccccc2)S1(=O)=O,"inconclusive: 32.6 µM [falling, single point]"
4,Cc1ccc(CN2CCN(CCCc3ccccc3)CC2CCO)cc1 (stereo not given),"inconclusive: 29.1 µM [falling, partial curve, poor fit]"
5,CCOC(=O)CSc1nnc(Cn2nnc(-c3ccccc3)n2)n1C,"inconclusive: 0.103 µM [falling, partial curve, poor fit]"
6,O=C(Nc1cc(-c2nc3ncccc3o2)ccc1Cl)c1cccs1,inactive
7,NCC(=O)NNC(=O)OCC1c2ccccc2-c2ccccc21,inactive
8,COc1ccc(CNC(=O)c2nnn(-c3cccc(C(F)(F)F)c3)c2N)cc1,"inconclusive: 8.2 µM [falling, partial curve, poor fit]"
9,Cc1ccc(NC(=O)CN(C)S(=O)(=O)c2ccc3[nH]c(=O)oc3c2)c(C)c1,inactive
10,O=C(c1ccc2c(c1)N(Cc1ccc(Cl)cc1)C(=O)c1ccccc1S2(=O)=O)N1CCC(Cc2ccccc2)CC1,"inconclusive: 9.2 µM [falling, partial curve, poor fit]"
11,CNc1nc2ccccc2n1/N=C/c1cccc(OC)c1OC,inactive
12,COc1ccc(N=Cc2ccccc2O)cc1,inactive
13,CN(N)C(=S)NCc1ccccc1,"inconclusive: 32.6 µM [activator, partial curve, poor fit]"
14,O=C(c1ccc2c(c1)N(Cc1ccc(F)cc1)C(=O)c1ccccc1S2(=O)=O)N1CCCCCC1,inactive
15,C/C(=N\Nc1nc(N2CCOCC2)nc(N2CCOCC2)n1)c1cccs1,"inconclusive: 3.66 µM [activator, single point]"
16,Cc1ccc(-n2[nH]c(C)c(/C=N/Nc3ccc([N+](=O)[O-])cc3[N+](=O)[O-])c2=O)cc1C,"inconclusive: 16.4 µM [falling, partial curve, poor fit]"
17,O=C(NCc1ccco1)[C@@H]1CCCN1C(=O)c1cccs1,inactive
18,Cc1cc(C)c(Cc2c(C)nc3c(C(=O)NCc4ccco4)cnn3c2C)c(C)c1,active: 18.4 µM
19,O=C(NNC(=S)Nc1ccc(F)c(Cl)c1)c1ccccc1Br,"inconclusive: 6.51 µM [activator, single point]"
20,Cc1ccc(C)c(N2CCN(C(=O)C3CCN(C(=O)c4cc5sccc5n4C)CC3)CC2)c1,active: 20.6 µM

# Two entries from above, set out differently.
row | SMILES | Potency
7 | NCC(=O)NNC(=O)OCC1c2ccccc2-c2ccccc21 | inactive
8 | COc1ccc(CNC(=O)c2nnn(-c3cccc(C(F)(F)F)c3)c2N)cc1 | inconclusive: 8.2 µM [falling, partial curve, poor fit]
